# The list shows a part of the results.
# Test system: T1, CTL2-GFP (C. trachomatis L2/434/Bu, GFP-expressing)
# T1 construct: L2/434/Bu, GFP-expressing
# Parameters: species or system HeLa; Intracellular C. trachomatis growth in HeLa cells, bulk GFP fluorescence relative to DMSO
# Settings: bulk GFP, single well; 28.5 h, 10 µM; inhibitor
row,SMILES,% of control remaining [%]
1,O=C(CSc1ncn(-c2ccccc2)n1)Nc1ccccc1Cl [CBK265593],124.4
2,CCOC(=O)C1CN(C(=O)N(CCN)Cc2ccc(Cl)cc2)CC1c1ccccc1 (centres unmarked) [CBK001682C],100.522
3,C=CCc1cccc(Cl)c1OCCN1CCN(C)CC1 [CBK269734C],129.333
4,N#Cc1ccc(NCC(=O)Nc2ncccc2O)cc1 [CBK306413],120.339
5,O=C(NCc1ccc(F)cc1)N1CCCC(CO)C1 (centres unmarked) [CBK156056],101.833
6,COc1ccc(CC(=O)Nc2ccc(OCC(=O)O)cc2)cc1 [CBK264244],95.2698
7,O=C(Cc1ccc(F)cc1)N1CCOC(Cn2ccnc2)C1 (centres unmarked) [CBK282875],113.852
8,CC(Oc1cccc(Cl)c1)c1nc(-c2cccs2)no1 (centres unmarked) [CBK293984],132.888
9,COc1ccc(-c2noc([C@@H]3C[C@H](NC(=O)c4ccc(F)cc4)CN3C)n2)cc1 [CBK288861],84.8583
10,CCCCN(C)c1c(C)nc2c(OCC(=O)c3ccc(F)cc3)cccn12 [CBK147172],167.691
11,O=c1[nH]n(-c2ccccc2)c(=O)n1Cc1ccccc1F [CBK122770],149.155
12,O=C(c1ccsc1NS(=O)(=O)c1ccc2ccccc2c1)N1CCOCC1 [CBK042278],100
13,COCc1nc(NCCCn2c(C)cccc2=O)cc([C@H]2C[C@H](N)C2)n1 [CBK307337],111.501
14,Cc1ccc(CSCc2nc3ccccc3[nH]2)cc1 [CBK265238],111.754
15,COc1ccc(CNC(=O)N2CCN(c3ccccc3OC)CC2)cc1OC [CBK155609],105.423
16,CC1CCN(S(=O)(=O)c2ccc(NC(=O)COc3ccc4ccccc4c3)cc2)CC1 [CBK264969],121.356
17,O=C(c1cnoc1-c1ccc(F)cc1)N1CCCC1 [CBK153707],131.49
18,O=C(O)c1cc2nc3c(c(C(F)(F)F)n2n1)CCc1ccccc1-3 [CBK263025],120.22
19,NC(=O)CN1CCC(Oc2cncc(OCCN3CCOCC3)n2)C1 (centres unmarked) [CBK084488],109.255
20,CSc1ncnc2c1CC=N2 [CBK007532],142.995
21,O=C(c1ccccc1F)N1CCC(c2n[nH]c3ncccc23)CC1 [CBK284903],120.963
22,CCN1CCN(C(=O)c2ccccc2N(Cc2ccccc2)S(C)(=O)=O)CC1 [CBK267028],151.868
23,CC(C)Oc1cccc(C(=O)Nc2ccc(N3CCN(C)CC3)cc2)c1 [CBK266090],131.82

# Sorted by count of non-hydrogen atoms (smallest number first): some entries from above
row,SMILES,% of control remaining [%]
11,O=c1[nH]n(-c2ccccc2)c(=O)n1Cc1ccccc1F [CBK122770],149.155
1,O=C(CSc1ncn(-c2ccccc2)n1)Nc1ccccc1Cl [CBK265593],124.4
12,O=C(c1ccsc1NS(=O)(=O)c1ccc2ccccc2c1)N1CCOCC1 [CBK042278],100
22,CCN1CCN(C(=O)c2ccccc2N(Cc2ccccc2)S(C)(=O)=O)CC1 [CBK267028],151.868

# Reference: publication PMC12040169 (PLOS Biology, 2025)
